Measured values taken from patent publication US20170158735A1 ("IVIX" Ltd., priority 2012, published 2017).
Square brackets hold non-standard residues; d marks the D form. Ends that are not written are not given here. * marks the point of attachment. Arg(NO2) = N=C(NCCC[C@H](N)C(=O)O)N[N+](=O)[O-]; Boc = CC(C)(C)OC(=O)*; OBn = c1ccc(CO*)cc1

Experiment: general procedure: solution-phase peptide synthesis; DCC; DCC/BT; OSu active ester
Conditions: acetate; for purity (crude or final not stated): chromatographic (Table 2, Tr and purity %)

Substance: Arg-Pro-Gly-Pro (RPGP)
- step yield (late stage modification step): 85%
- purity (crude or final not stated) (late stage modification step): 85%

Substance: Boc-PRPGP
- step yield (late stage modification step): 89%

Substance: Boc-P[Arg(NO2)]PGP-OBn
- step yield (coupling step): 67.8%

Substance: Boc-RPGP
- step yield (late stage modification step): 89%

Substance: Boc-TK(Boc)PF-OH
- step yield (coupling step): 69.0%

Substance: Boc-[Arg(NO2)]PGP-OBn
- step yield (coupling step): 85%

Substance: Pro-Arg-Pro-Gly-Pro (PRPGP)
- step yield (late stage modification step): 75%
- purity (crude or final not stated) (late stage modification step): 89%

Substance: TKPRPF
- purity (crude or final not stated) (whole synthesis): 96%

Substance: Thr-Lys-Pro-Arg (TKPR)
- purity (crude or final not stated) (whole synthesis): 94%

Substance: Thr-Lys-Pro-Arg-Pro (TKPRP)
- purity (crude or final not stated) (whole synthesis): 97%

Substance: Thr-Lys-Pro-Phe (TKPF)
- step yield (late stage modification step): 87%
- purity (crude or final not stated) (late stage modification step): 94%
